The supplement of paper PMC10849652
This is one part of the list.

The chains behind the UniProt entries cited, without tags or fusion partners. Where a name states a change or a piece, a line headed by the entry shows the natural chain unless it says otherwise.
UniProt P29374: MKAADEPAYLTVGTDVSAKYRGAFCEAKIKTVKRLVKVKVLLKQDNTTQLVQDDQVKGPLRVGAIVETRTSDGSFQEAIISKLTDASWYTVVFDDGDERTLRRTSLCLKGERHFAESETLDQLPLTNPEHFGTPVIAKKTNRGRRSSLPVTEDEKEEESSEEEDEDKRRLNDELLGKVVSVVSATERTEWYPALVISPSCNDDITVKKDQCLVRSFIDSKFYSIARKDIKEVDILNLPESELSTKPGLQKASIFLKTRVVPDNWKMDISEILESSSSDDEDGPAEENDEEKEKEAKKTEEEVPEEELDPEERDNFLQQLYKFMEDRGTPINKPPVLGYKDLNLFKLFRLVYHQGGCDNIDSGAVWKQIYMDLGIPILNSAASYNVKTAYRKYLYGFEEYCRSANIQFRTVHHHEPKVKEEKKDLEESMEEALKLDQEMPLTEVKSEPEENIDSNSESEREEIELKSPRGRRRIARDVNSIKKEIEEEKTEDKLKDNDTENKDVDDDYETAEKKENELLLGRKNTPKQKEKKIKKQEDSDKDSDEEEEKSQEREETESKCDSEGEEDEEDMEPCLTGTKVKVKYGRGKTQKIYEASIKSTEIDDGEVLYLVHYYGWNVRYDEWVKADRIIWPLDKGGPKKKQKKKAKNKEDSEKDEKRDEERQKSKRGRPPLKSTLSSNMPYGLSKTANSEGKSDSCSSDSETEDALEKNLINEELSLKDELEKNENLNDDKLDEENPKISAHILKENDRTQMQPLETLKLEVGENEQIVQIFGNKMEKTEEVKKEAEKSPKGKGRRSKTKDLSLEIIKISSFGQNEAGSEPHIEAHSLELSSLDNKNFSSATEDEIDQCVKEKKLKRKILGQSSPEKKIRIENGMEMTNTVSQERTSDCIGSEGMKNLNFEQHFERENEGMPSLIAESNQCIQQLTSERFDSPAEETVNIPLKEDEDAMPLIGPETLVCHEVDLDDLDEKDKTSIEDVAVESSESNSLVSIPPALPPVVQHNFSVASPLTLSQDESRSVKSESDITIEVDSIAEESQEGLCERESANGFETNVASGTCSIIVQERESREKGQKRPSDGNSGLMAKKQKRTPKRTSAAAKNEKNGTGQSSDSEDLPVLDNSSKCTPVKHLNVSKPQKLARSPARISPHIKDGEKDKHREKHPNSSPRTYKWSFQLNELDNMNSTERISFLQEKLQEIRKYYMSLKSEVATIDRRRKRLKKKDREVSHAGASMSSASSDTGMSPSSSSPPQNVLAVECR
UniProt Q8N264: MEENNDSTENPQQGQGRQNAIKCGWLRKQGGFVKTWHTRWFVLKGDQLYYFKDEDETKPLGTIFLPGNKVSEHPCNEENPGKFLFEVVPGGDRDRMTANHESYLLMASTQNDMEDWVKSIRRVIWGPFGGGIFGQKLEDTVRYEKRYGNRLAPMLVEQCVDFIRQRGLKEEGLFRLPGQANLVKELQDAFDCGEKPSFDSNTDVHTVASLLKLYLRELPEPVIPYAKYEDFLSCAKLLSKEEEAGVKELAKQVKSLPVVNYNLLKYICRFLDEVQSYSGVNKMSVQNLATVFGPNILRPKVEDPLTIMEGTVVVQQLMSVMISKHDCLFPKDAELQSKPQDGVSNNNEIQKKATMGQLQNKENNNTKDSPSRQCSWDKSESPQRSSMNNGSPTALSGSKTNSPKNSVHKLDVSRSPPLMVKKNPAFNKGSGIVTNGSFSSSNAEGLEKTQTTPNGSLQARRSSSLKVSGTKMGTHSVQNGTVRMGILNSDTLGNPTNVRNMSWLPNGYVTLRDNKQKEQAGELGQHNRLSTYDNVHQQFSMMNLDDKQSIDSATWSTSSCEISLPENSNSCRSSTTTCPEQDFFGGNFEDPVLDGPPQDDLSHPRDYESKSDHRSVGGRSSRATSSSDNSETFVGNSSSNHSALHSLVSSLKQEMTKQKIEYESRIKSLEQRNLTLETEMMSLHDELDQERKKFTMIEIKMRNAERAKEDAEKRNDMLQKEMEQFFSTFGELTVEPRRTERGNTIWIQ
UniProt Q9H6L4: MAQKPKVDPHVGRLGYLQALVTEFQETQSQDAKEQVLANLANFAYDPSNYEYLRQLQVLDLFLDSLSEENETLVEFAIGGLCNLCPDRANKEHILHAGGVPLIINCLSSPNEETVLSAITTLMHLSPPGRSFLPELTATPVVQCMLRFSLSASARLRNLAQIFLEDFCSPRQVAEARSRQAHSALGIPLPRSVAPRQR
UniProt Q8IUX4: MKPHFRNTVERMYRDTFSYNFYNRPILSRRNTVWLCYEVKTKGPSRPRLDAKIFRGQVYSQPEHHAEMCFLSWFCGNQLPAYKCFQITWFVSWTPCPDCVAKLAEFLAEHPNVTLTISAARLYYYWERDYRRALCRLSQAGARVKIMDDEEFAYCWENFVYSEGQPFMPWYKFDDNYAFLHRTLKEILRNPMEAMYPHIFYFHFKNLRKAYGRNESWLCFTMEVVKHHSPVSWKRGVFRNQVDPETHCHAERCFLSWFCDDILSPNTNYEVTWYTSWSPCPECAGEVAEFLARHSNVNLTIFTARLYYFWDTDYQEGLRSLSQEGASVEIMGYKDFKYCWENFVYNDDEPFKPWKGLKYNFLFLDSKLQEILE
UniProt Q8IUR7, whole entry, looked up: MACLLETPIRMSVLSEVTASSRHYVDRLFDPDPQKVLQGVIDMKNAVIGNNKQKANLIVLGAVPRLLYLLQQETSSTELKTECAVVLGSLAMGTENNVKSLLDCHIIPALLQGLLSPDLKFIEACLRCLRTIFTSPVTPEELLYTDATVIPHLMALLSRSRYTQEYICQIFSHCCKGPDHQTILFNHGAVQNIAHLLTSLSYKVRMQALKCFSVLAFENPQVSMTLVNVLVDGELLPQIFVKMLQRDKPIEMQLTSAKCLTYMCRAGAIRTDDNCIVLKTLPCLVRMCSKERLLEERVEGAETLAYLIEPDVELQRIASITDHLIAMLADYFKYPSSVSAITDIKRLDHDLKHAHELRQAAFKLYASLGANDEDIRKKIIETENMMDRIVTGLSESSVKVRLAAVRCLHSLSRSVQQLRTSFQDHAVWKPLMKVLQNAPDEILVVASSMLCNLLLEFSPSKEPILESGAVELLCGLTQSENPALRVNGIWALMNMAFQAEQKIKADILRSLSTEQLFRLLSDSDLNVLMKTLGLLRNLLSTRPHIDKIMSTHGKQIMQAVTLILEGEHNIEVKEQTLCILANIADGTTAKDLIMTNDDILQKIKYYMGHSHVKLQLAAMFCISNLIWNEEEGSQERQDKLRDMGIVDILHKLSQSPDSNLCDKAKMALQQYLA
UniProt Q6UWY0: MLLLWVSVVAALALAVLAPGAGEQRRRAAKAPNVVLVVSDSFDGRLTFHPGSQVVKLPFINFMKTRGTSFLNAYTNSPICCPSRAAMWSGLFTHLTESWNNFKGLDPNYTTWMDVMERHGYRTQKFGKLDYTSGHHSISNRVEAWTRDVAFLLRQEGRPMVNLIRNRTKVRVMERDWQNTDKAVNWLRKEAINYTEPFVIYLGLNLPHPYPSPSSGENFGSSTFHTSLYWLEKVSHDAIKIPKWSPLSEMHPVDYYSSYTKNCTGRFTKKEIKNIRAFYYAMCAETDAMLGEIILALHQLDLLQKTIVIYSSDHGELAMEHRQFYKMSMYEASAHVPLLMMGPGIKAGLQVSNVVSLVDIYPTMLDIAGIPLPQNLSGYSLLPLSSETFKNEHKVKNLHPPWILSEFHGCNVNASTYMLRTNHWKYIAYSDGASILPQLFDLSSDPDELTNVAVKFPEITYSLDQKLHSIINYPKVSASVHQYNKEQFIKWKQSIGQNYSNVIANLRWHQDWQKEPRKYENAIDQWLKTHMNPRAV
UniProt Q9NUS5: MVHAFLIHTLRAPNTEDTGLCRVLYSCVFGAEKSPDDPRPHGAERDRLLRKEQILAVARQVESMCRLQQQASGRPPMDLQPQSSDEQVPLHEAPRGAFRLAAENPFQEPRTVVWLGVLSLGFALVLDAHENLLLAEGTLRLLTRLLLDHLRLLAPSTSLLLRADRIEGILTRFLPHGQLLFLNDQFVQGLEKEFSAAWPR
UniProt O14791: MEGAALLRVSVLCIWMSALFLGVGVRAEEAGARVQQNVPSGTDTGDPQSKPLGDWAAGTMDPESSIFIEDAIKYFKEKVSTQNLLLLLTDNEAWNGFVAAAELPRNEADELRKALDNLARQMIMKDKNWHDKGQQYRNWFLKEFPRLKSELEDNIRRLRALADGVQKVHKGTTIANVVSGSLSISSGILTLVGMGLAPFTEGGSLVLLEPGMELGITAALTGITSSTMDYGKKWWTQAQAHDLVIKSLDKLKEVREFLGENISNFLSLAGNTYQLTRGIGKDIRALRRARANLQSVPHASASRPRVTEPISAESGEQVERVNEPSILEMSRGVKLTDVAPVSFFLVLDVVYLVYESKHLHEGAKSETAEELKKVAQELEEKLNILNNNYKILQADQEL
UniProt P05090: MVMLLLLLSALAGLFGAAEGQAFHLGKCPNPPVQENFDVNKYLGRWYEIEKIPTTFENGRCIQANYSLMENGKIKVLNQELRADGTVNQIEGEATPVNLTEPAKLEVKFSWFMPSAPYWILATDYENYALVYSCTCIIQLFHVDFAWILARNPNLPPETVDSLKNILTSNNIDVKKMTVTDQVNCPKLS
UniProt Q9H2J1: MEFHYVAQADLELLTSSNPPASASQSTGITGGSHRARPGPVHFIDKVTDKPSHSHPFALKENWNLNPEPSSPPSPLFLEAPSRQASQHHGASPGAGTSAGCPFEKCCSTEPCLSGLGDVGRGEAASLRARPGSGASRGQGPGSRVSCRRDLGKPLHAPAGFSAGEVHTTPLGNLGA
UniProt Q7Z5H3: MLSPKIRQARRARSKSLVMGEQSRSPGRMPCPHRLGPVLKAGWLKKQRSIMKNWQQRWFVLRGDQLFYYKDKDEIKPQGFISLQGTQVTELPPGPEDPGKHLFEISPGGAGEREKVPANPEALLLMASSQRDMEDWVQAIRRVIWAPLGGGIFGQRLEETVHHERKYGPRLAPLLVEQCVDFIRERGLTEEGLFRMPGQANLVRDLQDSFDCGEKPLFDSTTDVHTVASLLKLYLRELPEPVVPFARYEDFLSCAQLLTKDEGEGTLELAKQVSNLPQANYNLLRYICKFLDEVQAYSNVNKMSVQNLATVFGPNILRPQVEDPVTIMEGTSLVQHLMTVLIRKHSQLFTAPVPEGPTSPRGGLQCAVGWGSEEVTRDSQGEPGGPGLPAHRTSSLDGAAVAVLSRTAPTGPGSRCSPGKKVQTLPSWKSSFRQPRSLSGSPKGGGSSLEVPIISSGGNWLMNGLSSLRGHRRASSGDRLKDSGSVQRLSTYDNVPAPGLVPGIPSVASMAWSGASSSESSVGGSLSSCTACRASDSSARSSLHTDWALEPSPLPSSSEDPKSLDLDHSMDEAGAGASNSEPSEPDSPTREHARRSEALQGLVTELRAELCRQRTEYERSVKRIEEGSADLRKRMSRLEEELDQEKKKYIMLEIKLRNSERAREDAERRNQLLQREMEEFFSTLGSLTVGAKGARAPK
UniProt P84077: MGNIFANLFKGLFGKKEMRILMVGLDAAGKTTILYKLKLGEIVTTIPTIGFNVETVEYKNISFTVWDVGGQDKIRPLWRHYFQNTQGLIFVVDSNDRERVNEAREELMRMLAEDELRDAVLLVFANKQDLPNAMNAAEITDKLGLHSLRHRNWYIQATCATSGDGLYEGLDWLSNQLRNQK
UniProt Q7Z2E3: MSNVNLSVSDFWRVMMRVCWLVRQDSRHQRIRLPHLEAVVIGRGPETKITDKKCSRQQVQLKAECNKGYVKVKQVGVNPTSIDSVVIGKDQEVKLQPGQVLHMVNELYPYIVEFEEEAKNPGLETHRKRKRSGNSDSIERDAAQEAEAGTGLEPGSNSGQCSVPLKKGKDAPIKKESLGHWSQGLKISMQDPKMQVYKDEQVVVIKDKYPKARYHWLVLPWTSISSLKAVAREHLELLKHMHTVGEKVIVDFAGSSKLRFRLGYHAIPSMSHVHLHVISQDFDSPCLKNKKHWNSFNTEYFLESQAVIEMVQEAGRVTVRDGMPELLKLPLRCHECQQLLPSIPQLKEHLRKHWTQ
UniProt Q9BZZ5: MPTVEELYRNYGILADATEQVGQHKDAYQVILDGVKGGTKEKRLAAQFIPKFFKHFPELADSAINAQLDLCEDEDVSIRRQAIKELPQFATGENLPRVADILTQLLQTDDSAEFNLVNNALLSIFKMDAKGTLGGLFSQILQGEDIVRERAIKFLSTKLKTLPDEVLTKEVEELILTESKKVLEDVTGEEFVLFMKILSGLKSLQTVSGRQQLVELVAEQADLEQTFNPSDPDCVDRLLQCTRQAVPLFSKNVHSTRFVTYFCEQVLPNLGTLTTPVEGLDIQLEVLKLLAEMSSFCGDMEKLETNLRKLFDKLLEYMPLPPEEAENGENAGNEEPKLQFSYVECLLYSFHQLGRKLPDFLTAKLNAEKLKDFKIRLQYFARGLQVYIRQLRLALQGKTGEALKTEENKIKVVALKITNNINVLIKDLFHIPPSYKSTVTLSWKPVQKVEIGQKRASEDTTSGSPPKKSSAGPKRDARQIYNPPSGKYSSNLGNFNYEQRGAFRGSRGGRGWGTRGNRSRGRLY

Columns and labels:
Assay in all cases: log2 fold change, soluble protein after heating vs DMSO (PISA); higher = thermal stabilisation; K562 lysate, 10 uM; active = over 0.2 and 3.5 SD of the protein, either way, in both replicates (recomputed)
dasatinib = compound: Cc1nc(Nc2ncc(C(=O)Nc3c(C)cccc3Cl)s2)cc(N2CCN(CCO)CC2)n1 [dasatinib]
In short: (§1)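 A 30 min treatment with 10 μM compound was applied to crude K562 extract at 1 mg/mL protein in PBS pH 7.4 with 1 mM MgCl2. Heating for 3 min spanned 48°C-58°C, after which aliquots were pooled, adjusted to 0.5% NP-40 at 4°C and spun at 21,000xg for 90 min. TMTpro 16plex LC-MS/MS of the supernatant, with channel sums equalised, gave values recorded as log-two fold change in thermal stability against solvent controls, from duplicates.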

[1] = compound: Cn1cc(-c2ccc3c(c2)CCN3C(=O)Cc2cccc(C(F)(F)F)c2)c2c(N)ncnc21
In short: as §1

quisinostat = compound: Cn1cc(CNCC2CCN(c3ncc(C(=O)NO)cn3)CC2)c2ccccc21 [quisinostat]
In short: as §1

[2] = compound: NC(=O)Nc1cc(-c2cccc(F)c2)sc1C(=O)N[C@H]1CCCNC1
In short: as §1

nilotinib = compound: Cc1cn(-c2cc(NC(=O)c3ccc(C)c(Nc4nccc(-c5cccnc5)n4)c3)cc(C(F)(F)F)c2)cn1 [nilotinib]
In short: as §1

[3] = compound: Cc1nc(Nc2n[nH]c3c2CN(C(=O)N[C@H](CN(C)C)c2ccccc2)C3(C)C)c2sccc2n1
In short: as §1

[4] = compound: Cc1ncc(-c2ccnc(Nc3ccc(S(C)(=O)=O)cc3)n2)n1C(C)C
In short: as §1

tipifarnib = compound: Cn1cncc1[C@@](N)(c1ccc(Cl)cc1)c1ccc2c(c1)c(-c1cccc(Cl)c1)cc(=O)n2C [tipifarnib]
In short: as §1

[5] = compound: NC1(c2ccc(-c3nc4ccn5c(=O)[nH]nc5c4cc3-c3ccccc3)cc2)CCC1
In short: as §1

[6] = compound: NC(=O)c1cnc(N[C@@H]2CCCC[C@@H]2N)nc1Nc1cccc(-n2nccn2)c1
In short: as §1

Measured: log2 fold change

APOC3 (UniProt P02656)
inactive: dasatinib -0.225 | [1] 0.21 | quisinostat 0.245 | [2] -0.097

ARID4A (UniProt P29374)
inactive: nilotinib -0.02 | [3] 0.063 | dasatinib -0.039 | [4] 0.028 | [1] -0.079 | tipifarnib -0.12 | [5] -0.028

ARL4A (UniProt P40617)
inactive: nilotinib 0.078 | [3] -0.061 | [4] -0.093 | tipifarnib -0.14

ARAP3 (UniProt Q8WWN8)
inactive: nilotinib 0.155 | [3] -0.049 | dasatinib -0.05 | [4] -0.005 | [1] 0.102 | tipifarnib 0.023 | [5] 0.027

ARHGAP24 (UniProt Q8N264)
inactive: nilotinib 0.016 | [3] 0.074 | [4] 0.15 | tipifarnib -0.031 | [5] -0.111

ARMC10 isoform 2 (UniProt Q8N2F6)
inactive: dasatinib 0 | [1] 0.102

ARMC7 (UniProt Q9H6L4)
inactive: dasatinib -0.014 | [1] 0.097 | quisinostat 0.045 | [2] -0.007

APBA1 (UniProt Q02410)
inactive: nilotinib -0.058 | [3] -0.045 | [4] -0.015 | quisinostat -0.095 | tipifarnib 0.059 | [2] -0.054 | [6] -0.023 | [5] 0.035

APOBEC3F (UniProt Q8IUX4)
inactive: nilotinib -0.034 | [3] -0.076 | [4] -0.083 | quisinostat -0.173 | tipifarnib 0.025 | [2] -0.069 | [6] -0.016 | [5] -0.317

ARMC8 isoform 6 (UniProt Q8IUR7)
inactive: [6] 0.071 | [5] 0.082

ASB1 (UniProt Q9Y576)
inactive: nilotinib 0.006 | [3] -0.06 | [4] 0.125 | quisinostat -0.04 | tipifarnib 0.058 | [2] 0.027

ARL6IP4 isoform 4 (UniProt Q66PJ3)
inactive: [6] -0.197

ARSK (UniProt Q6UWY0)
inactive: dasatinib -0.054 | [1] -0.041 | [6] -0.025 | [5] 0.044

AP5S1 (UniProt Q9NUS5)
inactive: dasatinib 0.001 | [1] -0.071 | quisinostat 0.086 | [2] 0.009 | [6] -0.058 | [5] 0.132

APBA3 (UniProt O96018)
inactive: quisinostat -0.172 | [2] 0.051 | [6] 0.172 | [5] -0.066

APLF (UniProt Q8IW19)
inactive: quisinostat -0.069 | [2] 0.069 | [6] -0.051 | [5] 0.037

ARL5B (UniProt Q96KC2)
inactive: nilotinib -0.068 | [3] 0.051 | [4] -0.007 | quisinostat 0.14 | tipifarnib -0.056 | [2] 0.029 | [6] 0.051 | [5] -0.069

ARHGAP39 isoform 2 (UniProt Q9C0H5)
inactive: quisinostat 0.13 | [2] -0.034 | [6] 0.094

APOH (UniProt P02749)
inactive: quisinostat -0.082 | [2] 0.082 | [6] 0.062

ARHGEF12 isoform 2 (UniProt Q9NZN5)
inactive: quisinostat 0.032 | [2] 0.038

APOL1 isoform 2 (UniProt O14791)
inactive: dasatinib -0.203 | [1] -0.109

ARHGEF16 (UniProt Q5VV41)
inactive: [5] 0.062

APPL2 isoform 3 (UniProt Q8NEU8)
inactive: dasatinib 0.028 | [1] 0.127 | quisinostat -0.056 | [2] 0.057 | [6] -0.018 | [5] -0.074

ASAP2 (UniProt O43150)
inactive: [6] -0.058

ARHGAP28 (UniProt Q9P2N2)
inactive: dasatinib -0.265 | [1] 0.013 | [6] 0.088 | [5] -0.014

ARRDC3 (UniProt Q96B67)
inactive: [5] -0.314

APOD (UniProt P05090)
inactive: dasatinib 0.411 | [1] 0.275 | quisinostat -0.195 | [2] -0.105 | [6] 0.942

APPBP2 (UniProt Q92624)
inactive: quisinostat 0.037 | [2] 0.17 | [5] -0.059

APH1A (UniProt Q96BI3)
inactive: nilotinib -0.006 | [3] -0.036 | [4] 0.069 | quisinostat 0.026 | tipifarnib 0.017 | [2] 0.015 | [6] -0.035 | [5] 0.019

ARHGAP15 (UniProt Q53QZ3)
inactive: quisinostat 0.142 | [2] 0.268 | [6] -0.013

ARRDC1-AS1 (UniProt Q9H2J1)
inactive: nilotinib 0.191 | [3] 0.165 | [4] -0.001 | tipifarnib 0.044

ARHGAP12 isoform 3 (UniProt Q8IWW6)
inactive: dasatinib 0.046 | [1] 0.148

ARL6IP4 isoform 2 (UniProt Q66PJ3)
inactive: [6] -0.053

ARHGAP22 isoform 2 (UniProt Q7Z5H3)
inactive: dasatinib -0.007 | [1] 0.015 | quisinostat -0.053 | [2] 0.062 | [6] 0 | [5] -0.107

ARF1 (UniProt P84077)
inactive: quisinostat -0.055 | [2] 0.033 | [6] 0.155 | [5] -0.05

APTX isoform 4 (UniProt Q7Z2E3)
inactive: nilotinib 0.129 | [3] 0.01 | [4] -0.065 | tipifarnib 0.214

API5 isoform 1 (UniProt Q9BZZ5)
inactive: nilotinib -0.138 | [3] 0.147 | [4] 0.019 | quisinostat -0.044 | tipifarnib -0.093 | [2] 0.032

ARL6 isoform 2 (UniProt Q9H0F7)
inactive: quisinostat 0.261 | [2] -0.046 | [5] 0.105

ARL13B (UniProt Q3SXY8)
inactive: dasatinib 0 | [1] -0.012 | quisinostat -0.313 | [2] 0.095 | [6] 0.131 | [5] 0.013

APC (UniProt P25054)
inactive: dasatinib 0.019 | [1] 0.049 | quisinostat -0.066 | [2] 0.014 | [5] 0.093
